The results in this text go back to article PMC8298471.

The chains behind the UniProt entries cited, without tags or fusion partners.
UniProt P32302: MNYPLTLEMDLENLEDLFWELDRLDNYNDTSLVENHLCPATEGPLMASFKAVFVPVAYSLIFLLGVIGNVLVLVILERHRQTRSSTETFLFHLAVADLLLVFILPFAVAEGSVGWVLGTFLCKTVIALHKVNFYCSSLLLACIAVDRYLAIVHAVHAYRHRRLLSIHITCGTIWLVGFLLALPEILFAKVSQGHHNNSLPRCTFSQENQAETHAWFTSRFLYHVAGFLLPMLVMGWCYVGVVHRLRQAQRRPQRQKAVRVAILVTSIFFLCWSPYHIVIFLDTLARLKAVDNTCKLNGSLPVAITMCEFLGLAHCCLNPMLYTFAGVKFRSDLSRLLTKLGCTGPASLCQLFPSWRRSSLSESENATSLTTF
UniProt P04899: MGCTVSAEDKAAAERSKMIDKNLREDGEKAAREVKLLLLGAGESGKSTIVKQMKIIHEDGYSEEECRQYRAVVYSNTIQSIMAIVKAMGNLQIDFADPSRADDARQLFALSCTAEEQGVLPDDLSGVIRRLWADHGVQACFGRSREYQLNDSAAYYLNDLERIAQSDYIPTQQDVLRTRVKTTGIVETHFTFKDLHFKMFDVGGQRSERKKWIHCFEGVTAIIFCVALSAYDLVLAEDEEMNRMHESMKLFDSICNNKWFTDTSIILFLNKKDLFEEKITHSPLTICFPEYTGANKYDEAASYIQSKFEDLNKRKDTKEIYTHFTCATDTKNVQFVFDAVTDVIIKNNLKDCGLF

No constants are given. Whether binding was seen depends on the method and setting. In cells and extracts the contact can be indirect. Some entries that bind do so weakly or less than the wild type.

Assay [1] has as its target C-X-C chemokine receptor type 5 (CXCR5), endogenous (human (endogenous in HUVECs)) (UniProt P32302). Nature of the assay: co-IP; HUVECs transfected with GNAI2-WT or GNAI2-C66A, treated with HG + oxLDL; lysates (40 mM HEPES pH 7.4, 2 mM EDTA, 0.5% Triton X-100); indicated antibody overnight at 4 °C, protein A/G agarose, western blot (Fig. 4b).
Assay [2] shares this target. The assay is described as follows: co-IP; endogenous proteins in HUVEC lysates (40 mM HEPES pH 7.4, 2 mM EDTA, 0.5% Triton X-100); indicated antibody overnight at 4 °C, protein A/G agarose, five washes, western blot; normal conditions (Fig. 4a, Supplementary Fig. 4d); also HG + oxLDL with or without melatonin (Fig. 6g).

HA-GNAI2-WT (from UniProt P04899 1-355): in assay [1], the binding entry is “binds”.
As to “guanine nucleotide-binding protein G(i) subunit alpha-2 (GNAI2), endogenous (from UniProt P04899 1-355)”, the binding result in assay [2] was “binds”.
